Data source: PubChem BioAssay AID686937 (Drosophila RNAi Screening Center, 2013)
The deposit covers about 23,000 reagents; below is an unselected part of those with a known target gene and a result. 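Reduced-secretion tags in replicate 1 do not always agree with the z-scores; no criterion for assigning the tags was given.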 A plus sign joins genes that one reagent is predicted to hit. Further read-outs or replicates are left out here. The record does not give: the amount of reagent.

Purpose: 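Genes in the fly needed for secretion of protein constitutively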 (primary screen)
Cell system: Drosophila S2 cells expressing secreted horseradish peroxidase
Reagents: long dsRNA against Drosophila genes
Time to read-out: about 5.5 days (5 days dsRNA, then 12 h reporter induction)
Conditions: reporter expression induced after 5 days of dsRNA, read 12 h later; inducer not stated
Detection: 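After 5 days of dsRNA and 12 h of reporter induction, medium peroxidase read by chemiluminescence and scored as per-plate z-score; higher values mean more reporter released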
Direction: z-score: higher = more reporter secreted into medium

z-score, replicate 1, by target gene and reagent
CG6738: DRSC16104 0.27
CG43288: DRSC17314 -0.55
Cpr49Ab: DRSC05341 0.2
Rpp20 + CG33932: DRSC19467 -0.17
Uev1A: DRSC09763 0.48
Ppat-Dpck: DRSC09744 0.2
CG42449: DRSC18084 0.56
Acp98AB: DRSC21837 0.57
ApepP: DRSC01866 -0.17
CG32152: DRSC22906 -2.13
Mlp60A: DRSC04623 0.49; DRSC22233 -0.12; DRSC22481 0.15
CG4661: DRSC19910 0.28
CG4210: DRSC15551 -0.18
GstO1: DRSC10688 0.47
snz: DRSC17969 0.21
CG8468: DRSC07190 0.31
Desat2: DRSC15919 -0.16
Mekk1: DRSC16302 -0.31; DRSC16303 0.31
fy: DRSC03533 0.23
pita: DRSC04006 -1.84; DRSC04435 -2.21
CG14982: DRSC08440 -3.15
mib2: DRSC02623 0.18
CG6454: DRSC16044 0.34
Acsx3: DRSC14309 0.22
msl-2: DRSC00829 0.23
sty: DRSC08737 0.8
beg: DRSC10923 0.18
Ilp8: DRSC10076 0.54
PRL-1: DRSC03393 -0.48
asRNA:CR42547 + CG15674: DRSC04264 -0.02
mnb: DRSC20058 -0.94; DRSC20353 0.11
CG6126: DRSC15971 0.25
Kpc2: DRSC07635 0.52

Looked up above.
For “z-score, replicate 1”, CG14982 [DRSC08440] reads -3.15
Value for Mlp60A [DRSC22233] under “z-score, replicate 1”: -0.12
Value of pita [DRSC04006] under “z-score, replicate 1”: -1.84

Next entries follow.
z-score, replicate 1, by target gene and reagent
CG4496: DRSC02753 0.19
bcd: DRSC12624 0.36
Cyp4d20: DRSC08654 0.36
Gr22f: DRSC00076 0.18
CG31775 + CG42586: DRSC22289 0.33
CG16935: DRSC06638 -0.17
HtrA2: DRSC16425 0.07
Gyc89Da: DRSC15008 -0.29
mu2: DRSC08726 0.22; DRSC21534 -0.24
Debcl: DRSC04965 0.22
lncRNA:roX1: DRSC21884 -0.02
Hpf1: DRSC12202 0.3
CG18449: DRSC06754 0.32
CG12935: DRSC06248 -0.07
lectin-28C: DRSC03010 0.37
wds: DRSC18852 0.16
Hipk: DRSC07885 0.48; DRSC08507 -0.08
